Assay results as given in patent US20070042967A1, “Proteaseome inhibitors for the treatment of herpesviridae infected individuals” (priority 2002, published 2007).
At least one structure is not confirmed: it was looked up by name or label, or the drawing left a doubt. Where a SMILES comes first, the peptide text is derived from it. The star is where a group is joined. Cbz = O=C(OCc1ccccc1)*

How the values were obtained:
[1] = tested on: HCMV IE1/2 enhancer/promoter; assay: TNFα stimulation / basal activity of the HCMV IE1/2 enhancer/promoter, CAT reporter (pRR55) in HL-60 cells; type: cell-based, HCMV strain Ad169; details: 0.5 μg/ml; HL-60, TNFα 5 ng/ml, 48 h
Description: As a model for undifferentiated monocyte/granulocyte progenitor cells HL-60, cells (ATCC No. CCL 240) expressing high levels of CD34+ but low levels of typical differentiation antigens like CD11a-c and CD14 on their surface were used. Furthermore, HL-60 cells have retained the ability, to differentiate into granulocytes and monocytes depending on the stimulus. HL-60 cells were grown in RPMI 1640 medium supplemented with 10% fetal calf serum (both certified endotoxin-free, Biochrome, Germany) at 37° C. in a 5% humidified atmosphere. […] The cells were grown up to 1×10^6 cells per ml. HL-60 cells were transiently transfected with the plasmid pRR55 containing the native HCMV strain Ad169 IE1/2 enhancer/promoter region between nucleotides […] and +52 relative to the transcription start site upstream of the chloramphenicol acetyl transferase (CAT) reporter gene (Fickenscher et al., 1989). Plasmid DNA was prepared using the endofree Maxi Kit (QUIAGEN, Germany or Machery & Nagel, Germany) and stored in aliquots at −20° C. […] Cell extracts were measured for their protein concentrations using the method of Bradford (Bradford, 1976) and Bradford reagent (Sigma, Germany). Equal quantities of protein were used in the CAT-assay as described by Gorman et al., 1982. […] The acetylated products were quantified after separation by thin-layer chromatography using a thin layer scintillator. […]

HCMV AD169 [2] = assay: HCMV AD169 replication in human embryonal lung fibroblasts (CPE / IE staining, day 5 p.i.); type: cell-based, human cytomegalovirus; details: AD169, HELF
Description: Human embryonal lung fibroblasts (HELF), one of the target cells of HCMV in vivo, are fully permissive for HCMV replication in vitro. For infection experiments the laboratory adapted strain AD169 was propagated on HELFs. Virus stocks prepared from the overlay of infected cells showing 100% cytopathic effect (CPE) by ultra centrifugation were stored in liquid N2. Confluent HELF monolayer in 50 cm^2 flasks were infected with AD169 at a multiplicity of infection (M.O.I.) of 0.01. Adsorption of the virus was allowed for 1 hour at 37° C. After that the monolayer was overlayed with MEM containing 4.5% FCS. Medium was free of or substituted with the proteasome inhibitor at the indicated concentration. Virus cultures were cultivated for 5 days without changing the medium. On day five p.i. virus replication, was quantified by the number of CPE visible in inverse light microscope. For quantification cells were stained with an HCMV-specific antibody recognising the IE proteins IE1 and IE2 (clone E13, Harlan Sera-tab, Loughborough, GB, 1:5000), goat anti-mouse HRP-conjugated IgG (1:4000; Boehringer Mannheim, Indianapolis, Ind., USA) as secondary antibody and the AEC staining kit (Sigma, Germany) which gives a reed nuclear staining of infected cells.
Granulocyte/monocyte progenitor like HL-60 cells (ACC CCL 240) were grown in RPMI 1640 medium supplemented with 10% foetal calf serum (FCS, both from Biochrom, Germany and certified to be endotoxin free). Permissive human embryonal lung fibroblasts (HELF) were grown as monolayer in Dulbecco's modified Eagle's medium (BioWhittaker Europa, Belgium) containing 2.0% FCS. Virus stocks of HCMV strain AD169. of laboratory-derived ganciclovir (GCV)-resistant viruses XbaF 4-3-1 and 1117′ 3-1-2 (both are kindly provided from K. K. Biron, Burroughs Wellcome Colo.), HSV 1, strain K, and HSV 2, strain DG (both are patients isolates from the strain collection of this institute) were prepared from the supernatant of infected cell cultures and stored in liquid nitrogen. […]

NF-KB [3] = assay: NF-KB binding activity by EMSA/supershift in nuclear extracts of HELF; type: cell-based, human
ICAM-1 (CD54) = assay: Surface expression of ICAM-1 (CD54) on HELF by flow cytometric analysis; type: cell-based, human; details: 0.8 uM
Description: Next, we wondered whether MG132 is able to reduce the immune modulatory activity of HCMV. Therefore we measured the levels of extracellular IL-6, IL-8, and RANTES in the supernatants of mock-infected and AD-169-infected HELF (m.o.i. =1) following culture in the presence or absence of increasing amounts of MG132. In parallel, surface expression of ICAM-1 (CD54) was measured by flow cytometric analysis. As expected infection of HELF with AD 169 increased secretion of IL-6, EL-8 and RANTES (data not shown) as well as surface expression of ICAM-1 over time (FIGS. 14A and B). […]
Cell culture fluids were tested for RANTES using the ELISA KIT from R&D System, Germany, following the manufacturers instructions. […] Surface CD54 amounts were analysed using a FACScalibur analyser and cellquest software (Becton Dickinson, Germany). Data were calculated as A mean fluorescence intensities of CD54 and isotype control antibodies (=specific mean fluorescence intensity, MFI).
MG132-dependent suppression of HCMV-induced ICAM-1 surface expression Uninfected and AD169-infected HELF (m.o.i.=1) were grown in the absence or presence of MG132 or GCV and harvested 24 h (A) or 48 h (B) p.i. for surface ICAM-1 measurement by flowcytometric analysis. The specific MFI of uninfected and untreated control HELF was calculated as 100%. […]

HCMV AD169 [4] = assay: Western blot of viral IE1/IE2 and late p68 protein expression in AD169-infected HELF; type: cell-based, human cytomegalovirus; details: M.O.I. 1
HCMV AD169 [5] = assay: Viral DNA synthesis, quantitative HCMV DNA real-time PCR in AD169-infected HELF; type: cell-based, human cytomegalovirus
NF-KB [6] = assay: NF-KB binding activity by EMSA in nuclear extracts of TNFa-treated HL-60 cells; type: cell-based; details: 0.8 μM; TNFa-treated HL-60, two independent experiments
IKB = assay: Cytosolic IKB levels by Western blot in uninfected and AD169-infected HELF; type: cell-based, human; details: 0.8 μM, two days

SMILES: CC(C)C[C@@H](C=O)NC(=O)[C@H](CC(C)C)NC(=O)[C@H](CC(C)C)NC(=O)OCc1ccccc1 [MG-132, N-carbobenzoxy-L-leucinyl-L-leucinyl-L-leucinal] (Cbz-Leu-Leu-Leu-aldehyde)
- abrogation of the TNFα dependent stimulation of the IE1/2 enhancer/promoter [1]: nearly completely
- decrease of virus replication (HCMV AD169 [2]; 0.1 μg/ml (0.21 μM)): about one
- reduction of number of CPE / virus replication (HCMV AD169 [2]; 0.2 μg/ml (0.42 μM), day 5 p.i.): two
- spread of the virus in cell culture (HCMV AD169 [2]): inhibits spread of the virus
- NF-KB binding activity after AD169 infection (NF-KB [3]; 0.8 μM, AD169 m.o.i.=1): again reduced
- NF-KB p50 binding activity (NF-KB [3]; 0.8 μM, supershift): significant reduction
- NF-KB p65 binding activity in EMSA (NF-KB [3]; 0.8 μM, supershift): not significantly
- constitutive NF-KB binding activity (NF-KB [3]; 0.8 uM, uninfected HELF): decreased this binding activity
- constitutive ICAM-1 expression on uninfected cells (ICAM-1 (CD54)): not influenced
- virus-mediated up-regulation of ICAM-1 (ICAM-1 (CD54); AD169 m.o.i.=1, 24 h / 48 h p.i.): completely abrogated
- IE 1 and IE2 protein expression compared with the untreated virus control (HCMV AD169 [4]; 0.175 μg/ml): reduced
- late protein expression (p68) (HCMV AD169 [4]; 0.175 μg/ml): reduced and completely absent at day 3 p.i.
- IE protein expression compared with the untreated virus control (HCMV AD169 [4]; 0.2 μg/ml): reduced
- late protein expression (p68) (HCMV AD169 [4]; 0.2 μg/ml, until day 4 p.i.): completely blocked
- decrease of the number of viral genomes (HCMV AD169 [5]; 0.8 μM): two
- viral DNA synthesis (in words) (HCMV AD169 [5]; AD169, HELF, days 1, 3, 5 p.i.): inhibited by MG132 in a concentration-dependent manner
- reduction of NF-KB binding activity (NF-KB [6]): about twofold
- IKB in cytosolic extracts (IKB): significant accumulation
